In patent US20210205441A1:
These are yes or no findings as the source states them, for the method shown. Some binding calls cover weakened binding; strength is not graded here.

By UniProt entry, the sequences of proteins in these tests, tags left out. Where a name states a change or a piece, a line headed by the entry shows the natural chain unless it says otherwise. Residues count along the entry.
UniProt Q92956, residues 39-202: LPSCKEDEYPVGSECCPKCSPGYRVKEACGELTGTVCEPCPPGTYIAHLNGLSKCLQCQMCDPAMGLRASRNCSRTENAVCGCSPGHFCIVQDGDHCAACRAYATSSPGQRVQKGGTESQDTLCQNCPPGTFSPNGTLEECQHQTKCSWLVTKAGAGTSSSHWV

Assays:
Experiment in all cases: ELISA, HVEM on gD variants (FIG. 14)
[1] = target: modified gD gD1-275v5-55 (HSV-2 333 strain) (UniProt Q69467)
[2] = target: modified gD gD1-315v3-55 (HSV-2 333 strain) (UniProt Q69467)
[3] = target: modified gD gD1-315v5-55 (HSV-2 333 strain) (UniProt Q69467)
[4] = target: modified gD gD1-315v5-55V (HSV-2 333 strain) (UniProt Q69467)

Measured: binding

Recombinant Human HVEM/TNFRSF14 Fc Chimera Protein (R&D SYSTEMS, Inc.) (from UniProt Q92956 39-202) (Fc fusion)
binds: all assays above
